Test results published in US4530836A (Amano Pharmaceutical Co., Ltd., priority 1983, dated 1985).
Some peptides are written in HELM: one residue between dots, names in brackets for other building blocks, links after the first $. Starred links: 1 amine or outer side, 2 acyl side, 3 side chain; linkers in the order of their positions; H or OH if unused. Non-standard residues stand in square brackets, D forms with d. *: point of attachment. pGlu = O=C1CC[C@@H](C(=O)O)N1; Suc = O=C(CCC(=O)[*:2])[*:1]; Boc = CC(C)(C)OC(=O)*

experiment: general procedure: solution-phase peptide synthesis; azide process; mixed anhydride process; OSu active esters; conditions: coupling step

| Substance | step yield |
| --- | --- |
| Boc-YMGWM-NH2 | 63.1% |
| [pGlu]AYGWMDF-NH2 | 84.1% |
| Boc-YM[dA]WMDF-NH2 | 71.5% |
| Boc-YMGWMD-NH2 | 86.5% |
| Boc-D-Ala-Trp-Met-Asp-Phe-NH2 | 96.2% |
| Boc-β-Ala-Asp-Tyr-Met-Gly-Trp-Met-Asp-Phe-NH2 | 79.1% |
| Boc-Gly-Asp-Tyr-Met-Gly-Trp-Met-Asp-Phe-NH2 | 79.5% |
| Boc-M[dW]WMDF-NH2 | 76.7% |
| Boc-MGWMD-NH2 | 93.1% |
| Boc-MGWM-NH2 | 74.9% |
| Boc-YM[dW]WMDF-NH2 | 85.2% |
| Boc-M[dA]WMDF-NH2 | 69.2% |
| Boc-D-Trp-Trp-Met-Asp-Phe-NH2 | 61.1% |

same assay, conditions: late stage modification step

| Substance | step yield |
| --- | --- |
| PEPTIDE1{[pGlu].A.[Tyr(SO3H)].G.W.M.D.F.[am]}$$$$V2.0 | 52.2% |
| PEPTIDE1{[Suc].[Tyr(SO3H)].M.G.W.M.[am]}$$$$V2.0 | 50.0% |
| Pht-Tyr(SO3 H)-Met-D-Trp-Trp-Met-Asp-Phe-NH2 | 37.6% |
| Suc-YM[dA]WMDF-NH2 | 95.8% |
| Pht-Tyr-Met-D-Trp-Trp-Met-Asp-Phe-NH2 | 97.4% |
| Glt-Tyr-Met-D-Trp-Trp-Met-Asp-Phe-NH2 | 83.9% |
| PEPTIDE1{[Glt].A.[Tyr(SO3H)].G.W.M.D.F.[am]}$$$$V2.0 | 50.2% |
| Suc-YM[dW]WMDF-NH2 | 92.8% |
| PEPTIDE1{[Suc].[Tyr(SO3H)].M.G.W.M.D.[am]}$$$$V2.0 | 63.6% |
| PEPTIDE1{[Suc].[Tyr(SO3H)].M.[dW].W.M.D.F.[am]}$$$$V2.0 | 50.9% |
| PEPTIDE1{G.D.[Tyr(SO3H)].M.G.W.M.D.F.[am]}$$$$V2.0 | 50.8% |
| Suc-Tyr(SO3 H)-Met-D-Ala-Trp-Met-Asp-Phe-NH2 | 54.9% |
| PEPTIDE1{[Glt].[Tyr(SO3H)].M.[dW].W.M.D.F.[am]}$$$$V2.0 | 49.3% |
| Glt-Ala-Tyr-Gly-Trp-Met-Asp-Phe-NH2 | 76.1% |
| PEPTIDE1{[bAla].D.[Tyr(SO3H)].M.G.W.M.D.F.[am]}$$$$V2.0 | 50.1% |

same assay, conditions: late stage modification step; run 1

| Substance | step yield |
| --- | --- |
| Suc-YMGWM-NH2 | 77.1% |

same assay, conditions: late stage modification step; run 2

| Substance | step yield |
| --- | --- |
| Suc-YMGWM-NH2 | 72.8% |
